Reference: US20150216795A1 (SANOFI, priority 2012, published 2015)
At least one read-out could not be matched to a standard name with certainty.

Test: Population pharmacokinetic analysis
Type: in vivo, human
Settings: mild, moderate and severe renal impairment included
Text: There are no data available for patients with severe hepatic impairment.
There is no data available for patients with severe hepatic impairment (total bilirubin>3×ULN and any SGOT/AST).

ziv-aflibercept: recombinant fusion protein of VEGF-binding portions of human VEGF Receptors 1 and 2 fused to the Fc portion of human IgG1 (SEQ ID NO:1)
effect of creatinine clearance on the clearance of free ziv-aflibercept: no clinically important effect
